Consider two sequences from publication doi:10.1101/2021.10.01.462762 (bioRxiv, 2021).

The exact form of at least one protein or probe is not confirmed. For some assays here: No signal at the amounts used counts as a negative. For some assays here: At least one verdict was read from the data and is not stated in words by the source. For some assays here: Where a protein sequence is shown, tags need not be part of it. For some assays here: Weaker means in comparison with the reference protein, sequence or condition of that experiment.

The target in data set [1] is T1, PdeL (UniProt P21514).
T1 sequence (looked up, limits assumed): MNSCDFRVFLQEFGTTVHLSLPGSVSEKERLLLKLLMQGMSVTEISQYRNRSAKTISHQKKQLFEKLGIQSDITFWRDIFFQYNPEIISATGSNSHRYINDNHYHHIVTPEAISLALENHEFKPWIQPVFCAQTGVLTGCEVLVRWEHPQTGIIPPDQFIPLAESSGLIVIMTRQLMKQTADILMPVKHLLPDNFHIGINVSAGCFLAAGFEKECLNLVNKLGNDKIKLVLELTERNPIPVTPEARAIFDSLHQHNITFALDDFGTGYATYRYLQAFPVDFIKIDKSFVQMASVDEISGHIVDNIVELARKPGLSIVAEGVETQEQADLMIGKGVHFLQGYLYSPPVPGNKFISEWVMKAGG
Description: EMSA. The following applies: no Cra. Background: Mobility shift assays separate free from complexed probe on a gel.

Data set [2] concerns RNA polymerase holoenzyme. In words: EMSA. The settings on record: RNAP alone; probe letters rebuilt from the primers and the genome.

As for “TGCTGAATGGATTCAGTCTTAATGAGTGGG (double strand) [CB CDB oligo (4695/4696)]”, the binding result in data set [1] is reported as “no binding”.

With “TGCTGAATGGATTCAGTCTTAATGAGTGGGTTTTTAAGGGACAGGCATAGAGTAATGATACGTATGCATAACCAACATCTTTACTCATTATGTCATTGAATGTTGACGCTATGTGTTTATGAGGGAGAGGTATTTTCAGTTGATCTGGATTGTTAAATTCATATAATGCGCCTTTGCTC (double strand) [pdeL promoter 4695-4283]”, the binding result in data set [2] was “binds more weakly”.
